# Literature values, collected in patent publication US6372493B1, “Hormone-secreting cells maintained in long-term culture” (Pacific Biomedical Research, Inc. [Cell Mart, Inc.], priority 1991, dated 2002).
# Read-outs that look alike come from different tables or passages of the source. At least one compound was matched to its structure with a doubt left.
# How the values were obtained:
# [1] = system: freshly resected human insulinomas; details: cited from earlier work
# [2] = system: rat clonal beta-cell line (RIN); details: insulin secretion in vitro; cited from earlier work
structure (smiles),measurement,setting,value
"O=C[C@H](O)[C@@H](O)[C@H](O)[C@H](O)CO [glucose, D(+)glucose]",insulin secreted,[1]; 5.5 mM glucose,220 μIU insulin/ml
same,insulin secreted,[1]; 16.5 mM glucose,350 μIU insulin/ml
same,glucose concentration of maximal response,[2],0.6 mM
